Experimental data: US20180009892A1
Results are given in words; binding and its absence hold for the method and conditions named. Some results given as binding are weak or reduced against the parent protein; the word gives no strength.

Target: human ROR1 extracellular domain (ECD) protein (human), Q01973
Test: ForteBio Octet, Wnt5a binding to ROR1 in the presence of antibody

B1: Wnt5a, P41221 62-380 (ligand, UniProt P41221 62-380, looked up)
chain: IIGAQPLCSQLAGLSQGQKKLCHLYQDHMQYIGEGAKTGIKECQYQFRHRRWNCSTVDNTSVFGRVMQIGSRETAFTYAVSAAGVVNAMSRACREGELSTCGCSRAARPKDLPRDWLWGGCGDNIDYGYRFAKEFVDARERERIHAKGSYESARILMNLHNNEAGRRTVYNLADVACKCHGVSGSCSLKTCWLQLADFRKVGDALKEKYDSAAAMRLNSRGKLVQVNSRFNSPTTQDLVYIDPSPDYCVRNESTGSLGTQGRLCNKTSEGMDGCELMCCGRGYDQFKTVQTERCHCKFHWCCYVKCKKCTEIVDQFVCK
With B1 the binding was “binds”.
